{"source": "PubChem BioAssay AID1259308, NCATS – 2017", "aim": "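Genes whose loss raises luciferase production in HEK293 cells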 (primary screen)", "cells": "human HEK293 embryonic kidney cells stably expressing firefly luciferase (HEK-CMV-Luc2-Hygro)", "reagent": "single siRNA against human genes, 0.8 pmol siRNA per well", "duration": "72 h", "detection": "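Luciferase light (ONE-Glo) measured on one replicate plate set and viability (CellTiter-Glo) on the other, scaled to a negative control siRNA, with robust z-scores and luciferase per cell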", "reading the numbers": "total luciferase, z-score: higher = more reporter protein produced", "hit rule": "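An siRNA counts as active if its total luciferase robust z-score exceeds 3; genes with two or more such siRNAs out of three were retested with fresh siRNAs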", "meaning of the calls": "active = raised luciferase; inactive = no rise", "note": "The whole screen tested about 59,000 reagents; this is a part drawn at random. Over the whole deposit, about 1,510 (2.6%) were called active. 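Calls use total luciferase alone and ignore viability, so some active siRNAs may act by altering cell number.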 Unmarked entries are inactive. Reagents against one gene are numbered here. Further read-outs or replicates are left out here. No sequences are given here."}
{"gene": "TMX4", "reagent no.": 1, "total luciferase, z-score": 2.14}
{"gene": "TMX4", "reagent no.": 2, "total luciferase, z-score": -0.364}
{"gene": "TMX4", "reagent no.": 3, "total luciferase, z-score": 0.534}
{"gene": "RGCC", "reagent no.": 1, "total luciferase, z-score": -0.127}
{"gene": "RGCC", "reagent no.": 2, "total luciferase, z-score": -0.167}
{"gene": "RGCC", "reagent no.": 3, "total luciferase, z-score": 0.29}
{"gene": "DHX30", "reagent no.": 1, "total luciferase, z-score": 1.06}
{"gene": "DHX30", "reagent no.": 2, "total luciferase, z-score": -0.406}
{"gene": "DHX30", "reagent no.": 3, "total luciferase, z-score": -2.15}
{"gene": "MGARP", "reagent no.": 1, "total luciferase, z-score": -0.143}
{"gene": "MGARP", "reagent no.": 2, "total luciferase, z-score": 0.412}
{"gene": "MGARP", "reagent no.": 3, "total luciferase, z-score": -0.533}
{"gene": "LINC00467", "reagent no.": 1, "total luciferase, z-score": 0.978}
{"gene": "LINC00467", "reagent no.": 2, "total luciferase, z-score": 0.372}
{"gene": "LINC00467", "reagent no.": 3, "total luciferase, z-score": "3.94 (active)"}
{"gene": "TAFA4", "reagent no.": 1, "total luciferase, z-score": -0.403}
{"gene": "TAFA4", "reagent no.": 2, "total luciferase, z-score": 0.716}
{"gene": "TAFA4", "reagent no.": 3, "total luciferase, z-score": 0.635}
{"gene": "NR1I2", "reagent no.": 1, "total luciferase, z-score": -0.497}
{"gene": "NR1I2", "reagent no.": 2, "total luciferase, z-score": 0.793}
{"gene": "NR1I2", "reagent no.": 3, "total luciferase, z-score": -1.18}
{"gene": "BCL2L13", "reagent no.": 1, "total luciferase, z-score": 0.215}
{"gene": "BCL2L13", "reagent no.": 2, "total luciferase, z-score": 0.123}
{"gene": "BCL2L13", "reagent no.": 3, "total luciferase, z-score": 0.785}
{"gene": "KRT3", "reagent no.": 1, "total luciferase, z-score": -2.52}
{"gene": "KRT3", "reagent no.": 2, "total luciferase, z-score": -0.166}
{"gene": "KRT3", "reagent no.": 3, "total luciferase, z-score": 0.861}
{"gene": "SYNGR4", "reagent no.": 1, "total luciferase, z-score": -1.19}
{"gene": "SYNGR4", "reagent no.": 2, "total luciferase, z-score": 1.38}
{"gene": "SYNGR4", "reagent no.": 3, "total luciferase, z-score": 1.32}
{"gene": "RHPN1", "reagent no.": 1, "total luciferase, z-score": -0.446}
{"gene": "RHPN1", "reagent no.": 2, "total luciferase, z-score": -0.585}
{"gene": "RHPN1", "reagent no.": 3, "total luciferase, z-score": -0.794}
{"gene": "LNP1", "reagent no.": 1, "total luciferase, z-score": 0.51}
{"gene": "LNP1", "reagent no.": 2, "total luciferase, z-score": -0.536}
{"gene": "LNP1", "reagent no.": 3, "total luciferase, z-score": 0.987}
{"gene": "PARD6G", "reagent no.": 1, "total luciferase, z-score": -0.196}
{"gene": "PARD6G", "reagent no.": 2, "total luciferase, z-score": -0.317}
{"gene": "PARD6G", "reagent no.": 3, "total luciferase, z-score": -0.532}
{"gene": "FGF9", "reagent no.": 1, "total luciferase, z-score": -0.0705}
{"gene": "FGF9", "reagent no.": 2, "total luciferase, z-score": -1.17}
{"gene": "FGF9", "reagent no.": 3, "total luciferase, z-score": 1.08}
